This is an account of results in patent publication EP4786483A1 (priority 2023, dated 2025).

A short description of the data set: general procedure: solution-phase peptide synthesis; HATU/DIEA; DCC/DMAP; TCFH/NMI. As to conditions: late stage modification step.
The substance “(S)-N-((3R,4S,5S)-1-((S)-2-((1R,2R)-3-((3-aminophenethyl)(cyanomethyl)amino)-1-methoxy-2-methyl-3-oxopropyl)pyrrolidin-1-yl)-3-methoxy-5-methyl-1-oxoheptan-4-yl)-2-((S)-2-(dimethylamino)-3-methylbutanamido)-N,3-dimethylbutanamide” came in with a step yield of 85.76%. For the substance “(S)-N-((3R,4S,SS)-1-((S)-2-((1R,2R)-3-((3-aminophenethyl)(hydroxy)amino)-1-methoxy-2-methyl-3-oxopropyl)pyrrolidin-1-yl)-3-methoxy-5-methyl-1-oxoheptan-4-yl)-2-((S)-2-(dimethylamino)-3-methylbutanamido)-N,3-dimethylbutanamide”, the step yield amounted to 5.83%.

In turn, “(S)-N-((3R,4S,55)-1-((S)-2-((1R,2R)-3-((R)-2-(3-aminophenyl)morpholino)-1-methoxy-2-methyl-3-oxopropyl)pyrrolidin-1-yl)-3-methoxy-5-methyl-1-oxoheptan-4-yl)-2-((S)-2-(dimethylamino)-3-methylbutanamido)-N,3-dimethylbutanamide” had a step yield of 75.07%. The result for “(S)-N-((3R,4S,5S)-1-((S)-2-((1R,2R)-3-(((S)-1-(3-aminophenyl)-3-chloropropan-2-yl)amino)-1-methoxy-2-methyl-3-oxopropyl)pyrrolidin-1-yl)-3-methoxy-5-methyl-1-oxoheptan-4-yl)-2-((S)-2-(dimethylamino)-3-methylbutanamido)-N,3-dimethylbutanamide” reads 18.19%; that for “(S)-N-((3R,4S,55)-1-((S)-2-((1R,2R)-3-((S)-2-(3-aminophenyl)thiomorpholino)-1-methoxy-2-methyl-3-oxopropyl)pyrrolidin-1-yl)-3-methoxy-5-methyl-1-oxoheptan-4-yl)-2-((S)-2-(dimethylamino)-3-methylbutanamido)-N,3-dimethylbutanamide”, 52.75%. Next, “(S)-N-((3R,4S,5S)-1-((S)-2-((1R,2R)-3-((3-aminophenethyl)(methoxy)amino)-1-methoxy-2-methyl-3-oxopropyl)pyrrolidin-1-yl)-3-methoxy-5-methyl-1-oxoheptan-4-yl)-2-((S)-2-(dimethylamino)-3-methylbutanamido)-N,3-dimethylbutanamide”: 26.00%; “(S)-N-((3R,4S,5S)-1-((S)-2-((1R,2R)-3-((R)-2-(3-aminophenyl)thiomorpholino)-1-methoxy-2-methyl-3-oxopropyl)pyrrolidin-1-yl)-3-methoxy-5-methyl-1-oxoheptan-4-yl)-2-((S)-2-(dimethylamino)-3-methylbutanamido)-N,3-dimethylbutanamide”: 50.55%; “(S)-1-(3-aminophenyl)-3-cyanopropan-2-yl (2R,3R)-3-((S)-1-((3R,4S,5S)-4-((S)-2-((S)-2-(dimethylamino)-3-methylbutanamido)-N,3-dimethylbutanamido)-3-methoxy-5-methylheptanoyl)pyrrolidin-2-yl)-3-methoxy-2-methylpropanoate”: 52%. Next, “(S)-N-((3R,4S,5S)-1-((S)-2-((1R,2R)-3-(allyl(3-aminophenethyl)amino)-1-methoxy-2-methyl-3-oxopropyl)pyrrolidin-1-yl)-3-methoxy-5-methyl-1-oxoheptan-4-yl)-2-((S)-2-(dimethylamino)-3-methylbutanamido)-N,3-dimethylbutanamide”: 14.44%. In the case of “(S)-N-((3R,4S,5S)-1-((S)-2-((1R,2R)-3-((S)-2-(3-aminophenyl)-1,1-dioxidothiomorpholino)-1-methoxy-2-methyl-3-oxopropyl)pyrrolidin-1-yl)-3-methoxy-5-methyl-1-oxoheptan-4-yl)-2-((S)-2-(dimethylamino)-3-methylbutanamido)-N,3-dimethylbutanamide”, the step yield came out at 60.31%. In turn, “(S)-N-((3R,4S,5S)-1-((S)-2-((1R,2R)-3-((R)-2-(3-aminophenyl)-1,1-dioxidothiomorpholino)-1-methoxy-2-methyl-3-oxopropyl)pyrrolidin-1-yl)-3-methoxy-5-methyl-1-oxoheptan-4-yl)-2-((S)-2-(dimethylamino)-3-methylbutanamido)-N,3-dimethylbutanamide” displayed a step yield of 60.31%.

Regarding “(S)-N-((3R,4S,5S)-1-((S)-2-((1R,2R)-3-((3-aminophenethyl)(prop-2-yn-1-yl)amino)-1-methoxy-2-methyl-3-oxopropyl)pyrrolidin-1-yl)-3-methoxy-5-methyl-1-oxoheptan-4-yl)-2-((S)-2-(dimethylamino)-3-methylbutanamido)-N,3-dimethylbutanamide”, the step yield turned out to be 11.52%. As for “(S)-N-((3R,4S,5S)-1-((S)-2-((1R,2R)-3-(((S)-1-(3-aminophenyl)-but-3-yn-2-yl)amino)-1-methoxy-2-methyl-3-oxopropyl)pyrrolidin-1-yl)-3-methoxy-5-methyl-1-oxoheptan-4-yl)-2-((S)-2-(dimethylamino)-3-methylbutanamido)-N,3-dimethylbutanamide”, the step yield was found to be 16.01%. With “(S)-N-((3R,4S,SS)-1-((S)-2-((1R,2R)-3-((S)-2-(3-aminophenyl)morpholino)-1-methoxy-2-methyl-3-oxopropyl)pyrrolidin-1-yl)-3-methoxy-5-methyl-1-oxoheptan-4-yl)-2-((S)-2-(dimethylamino)-3-methylbutanamido)-N,3-dimethylbutanamide”, the step yield was found to be 90.12%.

In turn, “(S)-1-(3-aminophenyl)propan-2-yl (2R,3R)-3-((S)-1-((3R,4S,5S)-4-((S)-2-((S)-2-(dimethylamino)-3-methylbutanamido)-N,3-dimethylbutanamido)-3-methoxy-5-methylheptanoyl)pyrrolidin-2-yl)-3-methoxy-2-methylpropanoate” showed a step yield of 52%. Next, “(R)-1-(3-aminophenyl)propan-2-yl (2R,3R)-3-((S)-1-((3R,4S,5S)-4-((S)-2-((S)-2-(dimethylamino)-3-methylbutanamido)-N,3-dimethylbutanamido)-3-methoxy-5-methylheptanoyl)pyrrolidin-2-yl)-3-methoxy-2-methylpropanoate”: 52%.
